PubChem BioAssay AID1671195 | Yale University, 2021
This is an unselected part of about 22,000 deposited reagents. In the full data, about 1,510 (6.9%) are marked active. 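Active includes knockdowns raising or lowering LDL uptake; positive z-scores mean more uptake, negative mean less.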

Purpose: 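Genes whose knockdown alters LDL uptake in liver cancer cells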 (primary screen)
Cells: human Huh7 hepatoma cells
Knock-down reagent: siRNA pool against human genes, 18 nM
Time to read-out: about 2 to 2.5 days of knockdown, then 8 h LDL uptake
Challenge: DiI-labelled LDL at 30 µg/ml for 8 h, in lipoprotein-deficient serum medium
Measured: 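Per-cell DiI-LDL intensity by automated imaging; well means scaled to the plate median and given as a robust z-score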
Direction: robust z-score: higher = more LDL uptake after knockdown
Active means: 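a gene counts as active if at least two replicate z-scores exceed ±2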

EGLN2 (egl-9 family hypoxia inducible factor 2) [SID442904530]
- robust z-score, replicate 1: -1.49
- robust z-score, replicate 2: -2.23
- robust z-score, replicate 3: -1.34
- outcome: inactive

C19orf44 (chromosome 19 open reading frame 44) [SID442889090]
- robust z-score, replicate 1: 0.887
- robust z-score, replicate 2: 0.425
- robust z-score, replicate 3: 0.53
- outcome: inactive

ADAMTS14 (ADAM metallopeptidase with thrombospondin type 1 motif 14) [SID442899164]
- robust z-score, replicate 1: -0.57
- robust z-score, replicate 2: -0.736
- robust z-score, replicate 3: -0.451
- outcome: inactive

PLCXD3 [SID442896176]
- robust z-score, replicate 1: -0.183
- robust z-score, replicate 2: -0.224
- robust z-score, replicate 3: -0.329
- outcome: inactive

TDRD5 (tudor domain containing 5) [SID442890362]
- robust z-score, replicate 1: 0.826
- robust z-score, replicate 2: 0.377
- robust z-score, replicate 3: 0.0787
- outcome: inactive

RAB3A (RAB3A, member RAS oncogene family) [SID442889388]
- robust z-score, replicate 1: 0.694
- robust z-score, replicate 2: 0.625
- robust z-score, replicate 3: 0.383
- outcome: inactive

BBS12 (Bardet-Biedl syndrome 12) [SID442902764]
- robust z-score, replicate 1: -1.2
- robust z-score, replicate 2: -1.42
- robust z-score, replicate 3: -0.809
- outcome: inactive

LOC441634 (retired record) [SID442888818]
- robust z-score, replicate 1: 0.735
- robust z-score, replicate 2: 0.847
- robust z-score, replicate 3: 0.386
- outcome: inactive

LOC113386 (retired record) [SID442896735]
- robust z-score, replicate 1: -0.751
- robust z-score, replicate 2: 0.236
- robust z-score, replicate 3: -0.405
- outcome: inactive

HSPB1 (heat shock protein family B (small) member 1) [SID442903942]
- robust z-score, replicate 1: -1.42
- robust z-score, replicate 2: -1.49
- robust z-score, replicate 3: -1.41
- outcome: inactive

ZNF716 (zinc finger protein 716) [SID442885356]
- robust z-score, replicate 1: 1.78
- robust z-score, replicate 2: 2.39
- robust z-score, replicate 3: 0.459
- outcome: inactive

EPAS1 (endothelial PAS domain protein 1) [SID442894692]
- robust z-score, replicate 1: -0.541
- robust z-score, replicate 2: 0.199
- robust z-score, replicate 3: 0.0705
- outcome: inactive

Reprinted from above, 2 entries:
PLCXD3 [SID442896176]
- robust z-score, replicate 1: -0.183
- robust z-score, replicate 2: -0.224
- robust z-score, replicate 3: -0.329
- outcome: inactive

TDRD5 (tudor domain containing 5) [SID442890362]
- robust z-score, replicate 1: 0.826
- robust z-score, replicate 2: 0.377
- robust z-score, replicate 3: 0.0787
- outcome: inactive
